Experimental findings from PMC2634843 are described below.

Chains of the proteins cited; added tags and fusions are not shown.
UniProt P78527: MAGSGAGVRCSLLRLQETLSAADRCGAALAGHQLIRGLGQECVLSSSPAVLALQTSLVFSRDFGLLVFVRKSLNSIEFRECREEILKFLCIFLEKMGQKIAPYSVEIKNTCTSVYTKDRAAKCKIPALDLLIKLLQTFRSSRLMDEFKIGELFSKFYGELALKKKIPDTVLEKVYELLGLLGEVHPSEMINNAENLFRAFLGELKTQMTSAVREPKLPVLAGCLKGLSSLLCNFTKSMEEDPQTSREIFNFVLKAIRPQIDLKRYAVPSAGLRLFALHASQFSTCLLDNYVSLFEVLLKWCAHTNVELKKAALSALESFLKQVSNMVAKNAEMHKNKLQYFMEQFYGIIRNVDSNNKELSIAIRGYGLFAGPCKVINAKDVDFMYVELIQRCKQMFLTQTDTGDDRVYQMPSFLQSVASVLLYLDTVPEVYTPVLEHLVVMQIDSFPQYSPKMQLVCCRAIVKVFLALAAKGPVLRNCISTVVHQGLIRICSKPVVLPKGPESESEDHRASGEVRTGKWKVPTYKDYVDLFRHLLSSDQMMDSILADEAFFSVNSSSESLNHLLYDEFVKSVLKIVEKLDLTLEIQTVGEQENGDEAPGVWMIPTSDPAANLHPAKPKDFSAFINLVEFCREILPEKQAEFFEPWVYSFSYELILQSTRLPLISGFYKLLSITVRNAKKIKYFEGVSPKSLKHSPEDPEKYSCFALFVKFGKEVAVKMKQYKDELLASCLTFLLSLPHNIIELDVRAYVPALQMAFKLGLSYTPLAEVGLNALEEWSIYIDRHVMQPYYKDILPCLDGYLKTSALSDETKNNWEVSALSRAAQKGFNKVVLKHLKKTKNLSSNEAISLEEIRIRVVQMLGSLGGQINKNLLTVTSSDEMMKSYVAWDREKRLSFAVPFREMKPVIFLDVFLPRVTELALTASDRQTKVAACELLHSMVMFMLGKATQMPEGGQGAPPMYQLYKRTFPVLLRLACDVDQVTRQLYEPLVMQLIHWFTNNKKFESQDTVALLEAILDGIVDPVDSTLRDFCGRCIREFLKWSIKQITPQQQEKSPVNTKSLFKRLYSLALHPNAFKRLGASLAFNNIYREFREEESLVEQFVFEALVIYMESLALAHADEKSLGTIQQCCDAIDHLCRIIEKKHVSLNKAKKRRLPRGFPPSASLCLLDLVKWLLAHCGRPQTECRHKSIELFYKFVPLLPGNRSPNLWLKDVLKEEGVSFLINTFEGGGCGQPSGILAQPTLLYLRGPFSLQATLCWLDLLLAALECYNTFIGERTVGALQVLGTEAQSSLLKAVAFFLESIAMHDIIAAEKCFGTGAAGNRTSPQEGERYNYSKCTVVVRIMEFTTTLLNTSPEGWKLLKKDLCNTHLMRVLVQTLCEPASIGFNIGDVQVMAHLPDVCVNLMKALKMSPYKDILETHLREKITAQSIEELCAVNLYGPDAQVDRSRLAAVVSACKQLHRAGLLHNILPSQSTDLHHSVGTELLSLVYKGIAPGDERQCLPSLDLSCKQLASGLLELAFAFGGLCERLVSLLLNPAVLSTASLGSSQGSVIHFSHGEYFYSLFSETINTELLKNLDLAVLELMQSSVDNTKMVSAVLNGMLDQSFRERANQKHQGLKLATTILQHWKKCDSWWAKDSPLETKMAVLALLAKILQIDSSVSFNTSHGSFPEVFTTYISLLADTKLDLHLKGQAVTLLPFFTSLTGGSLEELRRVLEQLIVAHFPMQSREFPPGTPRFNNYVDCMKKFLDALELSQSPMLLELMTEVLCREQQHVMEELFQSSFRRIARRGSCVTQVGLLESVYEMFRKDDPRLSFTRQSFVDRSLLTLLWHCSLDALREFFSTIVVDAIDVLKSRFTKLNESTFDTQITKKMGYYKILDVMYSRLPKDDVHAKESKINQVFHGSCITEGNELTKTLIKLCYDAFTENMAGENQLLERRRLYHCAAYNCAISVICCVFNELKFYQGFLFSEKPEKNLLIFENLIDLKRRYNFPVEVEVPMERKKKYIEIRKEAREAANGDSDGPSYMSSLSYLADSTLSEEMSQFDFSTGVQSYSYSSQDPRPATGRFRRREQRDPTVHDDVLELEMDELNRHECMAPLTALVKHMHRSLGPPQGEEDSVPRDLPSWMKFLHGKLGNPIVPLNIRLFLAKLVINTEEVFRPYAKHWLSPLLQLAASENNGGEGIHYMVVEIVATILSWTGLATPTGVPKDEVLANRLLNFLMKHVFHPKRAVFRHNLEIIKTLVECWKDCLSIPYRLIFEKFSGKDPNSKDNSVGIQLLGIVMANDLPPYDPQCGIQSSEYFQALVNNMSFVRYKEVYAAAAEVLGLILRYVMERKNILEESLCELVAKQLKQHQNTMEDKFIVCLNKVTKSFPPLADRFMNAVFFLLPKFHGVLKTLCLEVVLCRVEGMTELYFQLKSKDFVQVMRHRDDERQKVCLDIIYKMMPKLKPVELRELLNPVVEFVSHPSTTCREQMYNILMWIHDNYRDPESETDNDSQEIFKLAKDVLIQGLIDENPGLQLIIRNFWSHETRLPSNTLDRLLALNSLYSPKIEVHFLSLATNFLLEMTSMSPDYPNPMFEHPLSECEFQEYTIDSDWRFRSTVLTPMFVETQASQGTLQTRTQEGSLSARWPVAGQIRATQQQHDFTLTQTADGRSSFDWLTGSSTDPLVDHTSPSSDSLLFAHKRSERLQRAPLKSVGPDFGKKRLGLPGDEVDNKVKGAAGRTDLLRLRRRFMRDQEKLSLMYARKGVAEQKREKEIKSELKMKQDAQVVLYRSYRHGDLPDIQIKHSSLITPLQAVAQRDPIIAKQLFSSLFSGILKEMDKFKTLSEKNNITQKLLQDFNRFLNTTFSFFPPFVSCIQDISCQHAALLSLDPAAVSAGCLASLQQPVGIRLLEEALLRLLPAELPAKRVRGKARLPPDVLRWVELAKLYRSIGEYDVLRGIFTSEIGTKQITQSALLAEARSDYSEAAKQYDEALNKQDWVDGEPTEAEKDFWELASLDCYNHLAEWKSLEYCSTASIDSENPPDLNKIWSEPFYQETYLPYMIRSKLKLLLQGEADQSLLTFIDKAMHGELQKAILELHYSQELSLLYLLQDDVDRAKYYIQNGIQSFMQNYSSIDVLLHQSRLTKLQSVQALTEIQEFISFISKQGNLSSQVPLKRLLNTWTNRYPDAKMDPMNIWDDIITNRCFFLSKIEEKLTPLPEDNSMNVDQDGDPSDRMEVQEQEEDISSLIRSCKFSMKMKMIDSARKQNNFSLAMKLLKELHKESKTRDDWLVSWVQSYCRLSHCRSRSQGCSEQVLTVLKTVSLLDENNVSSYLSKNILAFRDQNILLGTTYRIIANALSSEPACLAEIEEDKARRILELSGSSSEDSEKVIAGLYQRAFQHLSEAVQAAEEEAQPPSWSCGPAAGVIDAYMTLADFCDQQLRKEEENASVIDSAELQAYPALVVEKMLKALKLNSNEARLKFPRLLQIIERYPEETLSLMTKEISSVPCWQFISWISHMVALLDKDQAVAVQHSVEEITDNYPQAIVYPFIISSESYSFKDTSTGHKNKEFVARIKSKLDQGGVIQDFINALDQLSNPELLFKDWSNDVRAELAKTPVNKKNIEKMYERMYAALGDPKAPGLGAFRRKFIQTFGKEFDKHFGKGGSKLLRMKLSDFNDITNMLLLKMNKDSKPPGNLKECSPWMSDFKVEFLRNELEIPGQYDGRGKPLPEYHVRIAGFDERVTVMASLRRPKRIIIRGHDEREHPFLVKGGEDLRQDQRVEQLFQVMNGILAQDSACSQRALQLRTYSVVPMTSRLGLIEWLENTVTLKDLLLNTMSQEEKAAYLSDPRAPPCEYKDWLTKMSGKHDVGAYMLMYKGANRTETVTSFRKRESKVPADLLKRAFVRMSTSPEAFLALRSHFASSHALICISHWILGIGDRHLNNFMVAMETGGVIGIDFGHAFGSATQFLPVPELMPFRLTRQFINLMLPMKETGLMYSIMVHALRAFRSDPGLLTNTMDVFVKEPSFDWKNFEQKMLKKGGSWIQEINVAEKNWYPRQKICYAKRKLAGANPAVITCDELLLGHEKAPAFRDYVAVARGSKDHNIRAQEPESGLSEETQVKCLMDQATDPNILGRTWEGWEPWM

No constants are given. Whether binding was seen depends on the method and setting. Binding seen in cells or lysates may run through a third protein. Here binding means that the protein was enriched with, or labelled near, the bait; the list need not be complete. Where a sequence is shown, tags or fusion partners need not be part of it.

For this test, the target named is T1, FLAG-tagged PP6R1 (human) (UniProt Q9UPN7).
T1 sequence: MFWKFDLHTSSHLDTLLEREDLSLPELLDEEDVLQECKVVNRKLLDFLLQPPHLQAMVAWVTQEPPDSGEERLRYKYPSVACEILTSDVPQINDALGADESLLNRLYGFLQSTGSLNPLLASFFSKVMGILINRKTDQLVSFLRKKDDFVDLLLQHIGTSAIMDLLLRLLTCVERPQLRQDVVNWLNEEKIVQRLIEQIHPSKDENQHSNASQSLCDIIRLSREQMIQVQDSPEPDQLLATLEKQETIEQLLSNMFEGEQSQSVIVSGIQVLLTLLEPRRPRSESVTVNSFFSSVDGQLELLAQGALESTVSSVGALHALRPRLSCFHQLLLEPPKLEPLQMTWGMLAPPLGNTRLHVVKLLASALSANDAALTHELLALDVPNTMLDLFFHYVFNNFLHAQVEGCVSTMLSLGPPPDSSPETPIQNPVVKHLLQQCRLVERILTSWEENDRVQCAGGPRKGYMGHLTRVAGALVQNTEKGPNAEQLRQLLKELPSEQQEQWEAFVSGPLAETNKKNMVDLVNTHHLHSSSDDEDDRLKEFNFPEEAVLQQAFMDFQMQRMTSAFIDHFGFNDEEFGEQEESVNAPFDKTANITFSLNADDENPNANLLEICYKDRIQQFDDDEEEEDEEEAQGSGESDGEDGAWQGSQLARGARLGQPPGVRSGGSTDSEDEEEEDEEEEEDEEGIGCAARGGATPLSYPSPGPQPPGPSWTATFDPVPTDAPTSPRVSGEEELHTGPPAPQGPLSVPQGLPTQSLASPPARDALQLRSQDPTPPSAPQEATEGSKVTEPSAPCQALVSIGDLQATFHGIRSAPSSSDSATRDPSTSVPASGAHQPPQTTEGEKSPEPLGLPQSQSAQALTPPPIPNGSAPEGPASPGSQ
Kind of test: affinity purification with mass spectrometry; immunoprecipitates from a stable 293 cell line expressing low levels of FLAG-tagged PP6R1, analysed by mass spectroscopy.

Regarding “DNA-PKcs (DNA-PK catalytic subunit) (from UniProt P78527 1-4128) (enzyme)”, the binding result is on record as “binds”.

B1: PP6c (enzyme, UniProt O00743 1-305)
chain: MAPLDLDKYVEIARLCKYLPENDLKRLCDYVCDLLLEESNVQPVSTPVTVCGDIHGQFYDLCELFRTGGQVPDTNYIFMGDFVDRGYYSLETFTYLLALKAKWPDRITLLRGNHESRQITQVYGFYDECQTKYGNANAWRYCTKVFDMLTVAALIDEQILCVHGGLSPDIKTLDQIRTIERNQEIPHKGAFCDLVWSDPEDVDTWAISPRGAGWLFGAKVTNEFVHINNLKLICRAHQLVHEGYKFMFDEKLVTVWSAPNYCYRCGNIASIMVFKDVNTREPKLFRAVPDSERVIPPRTTTPYFL
Consider B1, for which the binding entry is “binds”.
